Measurements: patent publication US12239638B2, “Crystalline form of a 4-[2-(2-fluorophenoxymethyl)phenyl]piperidine compound” (THERAVANCE BIOPHARMA R&D IP, LLC, priority 2008, dated 2025)
At least one structure is not confirmed: it was looked up by name or label, or the drawing left a doubt.

How the values were obtained:
[1] = Solid state stability assessment; assay type: physicochemical; details: 28 days of storage in glass; −20° C., 5° C., 25° C./60% RH (open), 40° C./75% RH (closed and open)
[2] = Dynamic moisture sorption (DMS) assessment; assay type: physicochemical; details: exposed to up to 90% relative humidity, 25° C.

Compound: Fc1cc(F)c(OCc2ccccc2C2CCNCC2)c(F)c1 [Example 1, 4-[2-(2,4,6-Trifluorophenoxymethyl)phenyl]piperidine]
- change in chemical purity, chiral purity, PXRD, DSC and TGA profiles [1]: no detectable change
- weight gain [2]: less than 2.0%
